Some of these results come from one statement about several compounds together. Non-standard residues stand in square brackets, D forms with d. Residues, ends and D or L forms follow the SMILES beside them. Cya = N[C@@H](CS(=O)(=O)O)C(=O)O
Test system: HUVEC cells
Assay: HUVEC wound healing assay
Assay type: cell-based, human
Details: 24 h after injury

Question: How did the “initial wound area healed” value turn out when `C[C@@H](O)[C@H](NC(=O)[C@H](CS(=O)(=O)O)NC(=O)CNC(=O)[C@H](CCCNC(=N)N)NC(=O)CN)C(=O)N1CCC[C@H]1C(=O)O` [ALG-1001] (H-GRG[Cya]TP-OH; N-terminus and C-terminus assumed) was run?
Answer: The value was “up to 50%”.
